PubChem BioAssay AID686938 – Drosophila RNAi Screening Center | 2013
In all, the deposit lists about 23,000 reagents; shown is a random part of those that have a named target and a result. In the full data, 75 (0.33%) got an active call. 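Raw plate signals without normalisation; calls rest on plate z-scores that were not deposited; ratio present for only 364 wells.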 A number with no mark means an inactive call. The numbers tell different reagents against one gene apart. A plus sign joins genes that one reagent is predicted to hit. Not given: the dose of the treatment.

Aim: 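Knock-downs reducing store-operated calcium influx in Drosophila cells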 (primary screen)
Cell system: Drosophila S2R+ cells
Reagent: long dsRNA against Drosophila genes, about 0.25 µg dsRNA per well, roughly 10,000 cells
Duration: 5 days of knock-down before the calcium assay
Treatment: thapsigargin (SERCA pump blocker) to empty calcium stores; entry signal taken 4 min after adding it
Read-out: 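Duplicate raw fluo-4 intensities per well from a plate reader, at rest and four minutes after thapsigargin emptied calcium stores; entry-to-rest ratio filled for only some wells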
Reading the numbers: calcium entry signal: higher = stronger calcium signal after store depletion; resting calcium signal: higher = higher resting calcium signal
Hit rule: 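Called when the plate z-score of the entry-to-rest ratio, mean of duplicates, falls below −3; wells with low overall dye signal (Fmax z below −2) or more than five off-targets excluded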
Calls: active = strongly reduced calcium entry; inactive = no strong reduction

| target gene | reagent | calcium entry signal, replicate 1 (fluorescence units) | calcium entry signal, replicate 2 (fluorescence units) | resting calcium signal, replicate 1 (fluorescence units) | resting calcium signal, replicate 2 (fluorescence units) |
| --- | --- | --- | --- | --- | --- |
| Cyp12d1-d + Cyp12d1-p | 1 | 2.48e7 | 3.24e7 | 1.41e7 | 1.64e7 |
| SPR (Sex peptide receptor) | 1 | 2.10e7 | 2.47e7 | 1.07e7 | 1.26e7 |
| SPR (Sex peptide receptor) | 2 | 2.33e7 | 2.04e7 | 1.10e7 | 9.31e6 |
| SPR (Sex peptide receptor) | 3 | 2.32e7 | 3.57e7 | 1.29e7 | 1.69e7 |
| SPR (Sex peptide receptor) | 4 | 3.97e7 | 3.63e7 | 2.38e7 | 1.70e7 |
| Snx1 (Sorting nexin 1) | 1 | 4.69e7 | 4.90e7 | 2.14e7 | 2.08e7 |
| Lsm10 | 1 | 4.12e7 | 2.16e7 | 1.98e7 | 1.37e7 |
| Spec2 (retired record) | 1 | 4.59e7 | 2.93e7 | 2.21e7 | 1.37e7 |
| Spec2 (retired record) | 2 | 5.70e7 | 3.68e7 | 3.26e7 | 1.83e7 |
| CG15107 | 1 | 4.80e7 | 4.49e7 | 2.12e7 | 2.25e7 |
| alpha-Cat (alpha Catenin) | 1 | 4.29e7 | 4.41e7 | 1.99e7 | 2.13e7 |
| CG3308 | 1 | 5.07e7 | 3.94e7 | 2.16e7 | 1.68e7 |
| CG17780 + CG17781 | 1 | 3.66e7 | 4.63e7 | 2.01e7 | 1.92e7 |
| Stlk (Ste20-like kinase) | 1 | 2.74e7 | 3.25e7 | 1.44e7 | 1.41e7 |
| CG8272 | 1 | 4.92e7 | 4.82e7 | 2.04e7 | 2.24e7 |
| CG18420 | 1 | 3.31e7 | 2.17e7 | 1.58e7 | 9.93e6 |
| swi2 | 1 | 4.18e7 | 5.51e7 | 2.00e7 | 2.60e7 |
| Ravus | 1 | 2.47e7 | 4.15e7 | 1.25e7 | 5.95e7 |
| jb (jean-baptiste) | 1 | 4.92e7 | 5.19e7 | 2.25e7 | 2.09e7 |
| CG12984 | 1 | 3.11e7 | 5.11e7 | 1.53e7 | 2.25e7 |
| Kcmf1 (Potassium channel modulatory factor 1) | 1 | 3.20e7 | 3.73e7 | 1.54e7 | 1.90e7 |
| Svip (small VCP interacting protein) | 1 | 4.74e7 | 4.12e7 | 2.78e7 | 1.88e7 |
| sage (salivary gland-expressed bHLH) | 1 | 3.76e7 | 1.71e7 | 1.81e7 | 9.07e6 |
| HisRS (Histidyl-tRNA synthetase) | 1 | 3.10e7 | 2.72e7 | 1.70e7 | 1.42e7 |
| CG34330 | 1 | 4.98e7 | 4.82e7 | 2.25e7 | 1.95e7 |
| CG34183 | 1 | 2.96e7 | 3.80e7 | 1.55e7 | 1.55e7 |
| Mon1 (Monensin sensitivity 1) | 1 | 3.76e7 | 3.46e7 | 1.82e7 | 1.69e7 |
| CG34283 | 1 | 4.51e7 | 1.84e7 | 2.24e7 | 1.04e7 |
| CG18744 | 1 | 3.87e7 | 3.41e7 | 1.99e7 | 1.59e7 |
| Cdk12 (Cyclin-dependent kinase 12) | 1 | 3.41e7 | 2.32e7 | 2.78e7 | 1.32e7 |
| Cdk12 (Cyclin-dependent kinase 12) | 2 | 3.04e7 | 4.00e7 | 1.68e7 | 2.11e7 |
| Tmtc1 (Transmembrane O-mannosyltransferase targeting cadherins 1) | 1 | 3.96e7 | 4.53e7 | 2.04e7 | 2.05e7 |
| Tmtc1 (Transmembrane O-mannosyltransferase targeting cadherins 1) | 2 | 3.06e7 | 4.63e7 | 1.59e7 | 2.06e7 |
| Tmtc1 (Transmembrane O-mannosyltransferase targeting cadherins 1) | 3 | 3.89e7 | 6.04e7 | 1.81e7 | 2.43e7 |
| Tmtc1 (Transmembrane O-mannosyltransferase targeting cadherins 1) | 4 | 4.24e7 | 5.55e7 | 1.95e7 | 2.32e7 |
| CG13877 + pyx | 1 | 3.81e7 | 4.47e7 | 1.94e7 | 1.99e7 |
| ImpL2 (Ecdysone-inducible gene L2) | 1 | 4.71e7 | 3.84e7 | 3.10e7 | 1.50e7 |
| CG13716 | 1 | 2.90e7 | 2.61e7 | 1.75e7 | 1.25e7 |
| CG13716 | 2 | 3.50e7 | 3.49e7 | 1.67e7 | 1.85e7 |
| Acat1 (Acetyl-CoA acetyltransferase 1) | 1 | 4.59e7 | 3.86e7 | 2.09e7 | 1.92e7 |
| CG31013 | 1 | 3.92e7 | 4.71e7 | 1.99e7 | 1.96e7 |
| lncRNA:CR31781 (long non-coding RNA:CR31781) | 1 | 5.04e7 | – | 2.42e7 | – |
| lncRNA:CR31781 (long non-coding RNA:CR31781) | 2 | 3.99e7 | 2.58e7 | 1.71e7 | 1.13e7 |
| NK7.1 | 1 | 3.01e7 | 3.47e7 | 1.39e7 | 1.63e7 |
| Adck5 (aarF domain containing kinase 5) | 1 | 2.55e7 | 4.79e7 | 1.32e7 | 1.99e7 |
| CG15414 | 1 | 2.77e7 | 2.94e7 | 1.45e7 | 1.36e7 |
| CG15414 | 2 | 4.20e7 | 6.56e7 | 2.06e7 | 3.43e7 |
| CG10761 | 1 | 3.11e7 | 5.16e7 | 1.67e7 | 2.25e7 |
| Pgls (6-phosphogluconolactonase) | 1 | 3.88e7 | 6.75e7 | 2.00e7 | 3.17e7 |
| Nadk1a (NAD kinase 1a) | 1 | 5.36e7 | 4.72e7 | 2.17e7 | 2.01e7 |
| Nadk1a (NAD kinase 1a) | 2 | 2.50e7 | 2.92e7 | 1.10e7 | 1.44e7 |
| ktub (king tubby) | 1 | 3.70e7 | – | 1.93e7 | – |
| CG43376 | 1 | 4.58e7 | 2.76e7 | 2.03e7 | 1.43e7 |
| Prip | 1 | 2.66e7 | 3.12e7 | 1.17e7 | 1.56e7 |
| ND-B15 (NADH dehydrogenase (ubiquinone) B15 subunit) | 1 | 3.54e7 | 4.12e7 | 1.70e7 | 1.75e7 |
| CG14104 | 1 | 3.11e7 | 5.19e7 | 1.50e7 | 2.10e7 |
| hpRNA:CR18854 (hairpin RNA:CR18854) | 1 | 3.51e7 | 3.97e7 | 1.77e7 | 1.76e7 |
| CG13457 | 1 | 4.67e7 | 7.09e7 | 2.28e7 | 2.53e7 |

Sorted by “calcium entry signal, replicate 2 (fluorescence units)” (lowest first): 7 of the entries above.
| target gene | reagent | calcium entry signal, replicate 1 (fluorescence units) | calcium entry signal, replicate 2 (fluorescence units) | resting calcium signal, replicate 1 (fluorescence units) | resting calcium signal, replicate 2 (fluorescence units) |
| --- | --- | --- | --- | --- | --- |
| CG18420 | 1 | 3.31e7 | 2.17e7 | 1.58e7 | 9.93e6 |
| Stlk (Ste20-like kinase) | 1 | 2.74e7 | 3.25e7 | 1.44e7 | 1.41e7 |
| CG3308 | 1 | 5.07e7 | 3.94e7 | 2.16e7 | 1.68e7 |
| alpha-Cat (alpha Catenin) | 1 | 4.29e7 | 4.41e7 | 1.99e7 | 2.13e7 |
| CG17780 + CG17781 | 1 | 3.66e7 | 4.63e7 | 2.01e7 | 1.92e7 |
| CG8272 | 1 | 4.92e7 | 4.82e7 | 2.04e7 | 2.24e7 |
| swi2 | 1 | 4.18e7 | 5.51e7 | 2.00e7 | 2.60e7 |
